The list shows a part of the results. The data scatter; read single values as rough.

Chains of the proteins cited; added tags and fusions are not shown. Lines headed by an entry give the natural chain unless they say otherwise; changes in a name come on top. Residues count along the entry.
UniProt P49792, whole entry, looked up: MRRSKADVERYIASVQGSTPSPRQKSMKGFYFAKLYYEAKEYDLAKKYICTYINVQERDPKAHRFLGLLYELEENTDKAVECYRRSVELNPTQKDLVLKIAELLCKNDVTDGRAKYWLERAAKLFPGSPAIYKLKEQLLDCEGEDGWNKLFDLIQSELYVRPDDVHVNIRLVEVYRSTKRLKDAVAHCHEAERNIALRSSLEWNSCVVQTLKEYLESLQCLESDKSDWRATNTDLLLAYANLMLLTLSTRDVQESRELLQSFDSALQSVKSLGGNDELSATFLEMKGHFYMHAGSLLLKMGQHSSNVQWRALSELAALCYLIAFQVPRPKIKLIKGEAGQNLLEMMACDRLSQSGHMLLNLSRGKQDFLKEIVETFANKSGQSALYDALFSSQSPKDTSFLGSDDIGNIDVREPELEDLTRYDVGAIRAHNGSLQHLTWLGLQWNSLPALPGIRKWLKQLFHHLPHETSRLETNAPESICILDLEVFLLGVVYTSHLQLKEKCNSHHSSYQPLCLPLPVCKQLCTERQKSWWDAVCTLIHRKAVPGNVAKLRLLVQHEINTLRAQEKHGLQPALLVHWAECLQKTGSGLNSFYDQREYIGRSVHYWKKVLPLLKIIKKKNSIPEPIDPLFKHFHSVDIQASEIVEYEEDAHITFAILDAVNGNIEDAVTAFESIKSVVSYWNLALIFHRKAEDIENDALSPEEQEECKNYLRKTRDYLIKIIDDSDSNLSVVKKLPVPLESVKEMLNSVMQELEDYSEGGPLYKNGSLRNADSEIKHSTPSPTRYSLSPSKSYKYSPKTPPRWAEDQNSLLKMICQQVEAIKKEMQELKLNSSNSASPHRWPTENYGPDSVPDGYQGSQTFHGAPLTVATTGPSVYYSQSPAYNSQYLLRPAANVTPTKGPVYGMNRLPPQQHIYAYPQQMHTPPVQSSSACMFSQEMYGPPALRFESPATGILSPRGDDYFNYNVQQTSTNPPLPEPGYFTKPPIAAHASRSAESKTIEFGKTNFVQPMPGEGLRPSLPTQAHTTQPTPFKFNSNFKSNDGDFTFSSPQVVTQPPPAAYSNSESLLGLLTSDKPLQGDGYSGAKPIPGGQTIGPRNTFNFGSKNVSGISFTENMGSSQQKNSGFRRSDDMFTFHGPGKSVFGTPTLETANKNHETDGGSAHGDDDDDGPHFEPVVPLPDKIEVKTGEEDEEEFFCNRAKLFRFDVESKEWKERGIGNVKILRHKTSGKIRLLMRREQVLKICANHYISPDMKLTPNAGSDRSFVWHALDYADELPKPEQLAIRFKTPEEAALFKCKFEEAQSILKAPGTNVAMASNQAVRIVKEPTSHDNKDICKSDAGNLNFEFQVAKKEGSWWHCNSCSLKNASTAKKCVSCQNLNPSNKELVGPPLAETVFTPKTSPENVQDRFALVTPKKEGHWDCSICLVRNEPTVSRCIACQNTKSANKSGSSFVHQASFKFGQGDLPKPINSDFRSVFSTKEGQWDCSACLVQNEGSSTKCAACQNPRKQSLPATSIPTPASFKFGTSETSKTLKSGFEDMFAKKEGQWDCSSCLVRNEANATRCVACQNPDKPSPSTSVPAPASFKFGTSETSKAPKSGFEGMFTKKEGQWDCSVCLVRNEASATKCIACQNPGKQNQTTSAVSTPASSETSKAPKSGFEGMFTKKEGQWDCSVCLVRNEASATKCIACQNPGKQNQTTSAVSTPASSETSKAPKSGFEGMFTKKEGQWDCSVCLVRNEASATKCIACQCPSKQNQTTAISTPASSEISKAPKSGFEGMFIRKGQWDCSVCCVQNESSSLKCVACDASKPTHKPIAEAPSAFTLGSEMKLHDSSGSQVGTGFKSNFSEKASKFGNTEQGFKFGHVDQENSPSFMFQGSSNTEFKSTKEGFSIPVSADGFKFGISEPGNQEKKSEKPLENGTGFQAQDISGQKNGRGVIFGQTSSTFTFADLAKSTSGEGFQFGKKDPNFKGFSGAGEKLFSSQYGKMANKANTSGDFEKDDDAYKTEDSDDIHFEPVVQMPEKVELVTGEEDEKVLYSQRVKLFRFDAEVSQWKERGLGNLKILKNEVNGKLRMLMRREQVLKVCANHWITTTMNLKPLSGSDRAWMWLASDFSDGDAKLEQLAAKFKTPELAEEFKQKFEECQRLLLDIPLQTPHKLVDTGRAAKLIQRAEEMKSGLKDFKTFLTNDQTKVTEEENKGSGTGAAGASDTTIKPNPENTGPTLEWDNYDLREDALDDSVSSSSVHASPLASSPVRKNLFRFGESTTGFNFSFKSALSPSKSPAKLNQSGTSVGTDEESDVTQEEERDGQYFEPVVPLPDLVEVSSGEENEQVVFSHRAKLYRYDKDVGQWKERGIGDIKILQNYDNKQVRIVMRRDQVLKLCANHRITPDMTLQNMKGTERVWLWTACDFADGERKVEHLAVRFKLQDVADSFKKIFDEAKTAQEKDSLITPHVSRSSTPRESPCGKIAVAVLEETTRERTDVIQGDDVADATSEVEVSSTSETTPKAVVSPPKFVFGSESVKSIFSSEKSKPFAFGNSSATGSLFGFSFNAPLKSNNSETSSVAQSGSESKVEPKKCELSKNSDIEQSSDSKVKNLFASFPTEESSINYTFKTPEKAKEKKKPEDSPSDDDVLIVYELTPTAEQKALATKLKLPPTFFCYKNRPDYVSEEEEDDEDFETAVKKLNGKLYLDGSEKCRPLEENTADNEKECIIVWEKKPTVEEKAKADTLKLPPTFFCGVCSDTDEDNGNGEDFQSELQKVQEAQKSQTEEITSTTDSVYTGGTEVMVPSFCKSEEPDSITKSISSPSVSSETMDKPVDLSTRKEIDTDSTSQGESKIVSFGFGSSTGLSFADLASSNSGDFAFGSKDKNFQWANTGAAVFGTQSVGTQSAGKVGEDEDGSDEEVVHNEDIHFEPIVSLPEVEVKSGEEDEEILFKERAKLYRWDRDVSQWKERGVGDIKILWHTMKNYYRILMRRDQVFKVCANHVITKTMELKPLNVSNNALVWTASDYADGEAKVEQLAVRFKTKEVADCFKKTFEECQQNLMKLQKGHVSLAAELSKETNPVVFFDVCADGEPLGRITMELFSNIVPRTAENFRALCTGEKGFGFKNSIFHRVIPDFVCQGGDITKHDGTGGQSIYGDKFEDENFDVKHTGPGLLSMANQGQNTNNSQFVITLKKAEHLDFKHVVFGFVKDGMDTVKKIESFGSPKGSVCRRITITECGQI
UniProt P49792, 2766-2792: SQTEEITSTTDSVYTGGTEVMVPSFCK
UniProt O60518, 784-806: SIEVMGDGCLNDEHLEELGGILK
UniProt P35249: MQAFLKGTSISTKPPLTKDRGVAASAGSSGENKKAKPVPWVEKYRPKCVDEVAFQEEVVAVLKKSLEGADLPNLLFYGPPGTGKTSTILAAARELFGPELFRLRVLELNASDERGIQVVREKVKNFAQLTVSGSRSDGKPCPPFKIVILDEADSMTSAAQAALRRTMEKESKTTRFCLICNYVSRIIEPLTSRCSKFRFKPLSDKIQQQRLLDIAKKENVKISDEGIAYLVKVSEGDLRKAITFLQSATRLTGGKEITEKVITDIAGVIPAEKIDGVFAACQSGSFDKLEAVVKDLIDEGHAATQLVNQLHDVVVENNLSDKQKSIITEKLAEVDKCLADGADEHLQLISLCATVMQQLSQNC
UniProt Q6ZS17: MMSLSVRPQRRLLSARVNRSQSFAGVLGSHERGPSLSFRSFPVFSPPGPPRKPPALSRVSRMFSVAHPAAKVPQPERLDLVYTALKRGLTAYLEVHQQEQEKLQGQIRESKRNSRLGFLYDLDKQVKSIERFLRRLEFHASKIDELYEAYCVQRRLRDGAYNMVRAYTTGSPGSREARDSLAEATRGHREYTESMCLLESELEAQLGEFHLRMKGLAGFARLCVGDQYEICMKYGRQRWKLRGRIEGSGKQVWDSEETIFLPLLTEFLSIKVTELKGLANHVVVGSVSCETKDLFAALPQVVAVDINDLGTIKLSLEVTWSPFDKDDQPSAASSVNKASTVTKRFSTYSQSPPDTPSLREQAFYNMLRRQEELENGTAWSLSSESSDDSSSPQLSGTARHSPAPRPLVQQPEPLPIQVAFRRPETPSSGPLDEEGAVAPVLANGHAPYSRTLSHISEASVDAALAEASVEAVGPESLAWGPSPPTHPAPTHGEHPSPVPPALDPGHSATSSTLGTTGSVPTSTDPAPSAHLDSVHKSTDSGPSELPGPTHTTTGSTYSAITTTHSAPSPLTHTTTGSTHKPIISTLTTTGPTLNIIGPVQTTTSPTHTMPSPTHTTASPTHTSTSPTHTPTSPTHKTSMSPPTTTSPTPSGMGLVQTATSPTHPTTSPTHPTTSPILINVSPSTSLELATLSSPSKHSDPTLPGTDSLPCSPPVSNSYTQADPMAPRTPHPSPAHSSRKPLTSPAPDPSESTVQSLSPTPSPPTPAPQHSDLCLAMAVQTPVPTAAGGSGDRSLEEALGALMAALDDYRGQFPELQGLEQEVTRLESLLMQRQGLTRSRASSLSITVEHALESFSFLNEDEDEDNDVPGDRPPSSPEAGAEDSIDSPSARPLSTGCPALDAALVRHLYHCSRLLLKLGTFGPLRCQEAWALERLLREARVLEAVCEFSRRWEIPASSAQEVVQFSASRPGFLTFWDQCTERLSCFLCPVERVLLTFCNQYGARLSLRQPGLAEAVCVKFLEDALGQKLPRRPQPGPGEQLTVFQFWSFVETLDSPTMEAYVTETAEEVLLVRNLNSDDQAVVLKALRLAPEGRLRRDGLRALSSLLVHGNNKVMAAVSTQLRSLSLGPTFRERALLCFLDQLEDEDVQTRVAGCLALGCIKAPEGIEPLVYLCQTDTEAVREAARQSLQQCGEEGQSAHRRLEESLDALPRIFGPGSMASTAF
UniProt Q8TEU7, 1393-1415: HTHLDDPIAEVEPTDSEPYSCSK
UniProt Q9Y3P4: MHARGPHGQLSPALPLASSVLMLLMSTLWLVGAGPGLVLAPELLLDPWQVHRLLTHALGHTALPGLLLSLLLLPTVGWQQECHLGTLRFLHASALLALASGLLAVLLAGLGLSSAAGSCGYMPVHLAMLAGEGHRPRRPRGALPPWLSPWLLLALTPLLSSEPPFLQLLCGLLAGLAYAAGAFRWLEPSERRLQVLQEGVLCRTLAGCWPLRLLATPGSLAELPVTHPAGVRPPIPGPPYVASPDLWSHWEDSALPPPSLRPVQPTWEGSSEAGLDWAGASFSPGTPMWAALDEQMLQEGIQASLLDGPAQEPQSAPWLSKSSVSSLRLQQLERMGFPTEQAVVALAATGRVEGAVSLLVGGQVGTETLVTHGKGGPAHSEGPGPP
UniProt Q06330: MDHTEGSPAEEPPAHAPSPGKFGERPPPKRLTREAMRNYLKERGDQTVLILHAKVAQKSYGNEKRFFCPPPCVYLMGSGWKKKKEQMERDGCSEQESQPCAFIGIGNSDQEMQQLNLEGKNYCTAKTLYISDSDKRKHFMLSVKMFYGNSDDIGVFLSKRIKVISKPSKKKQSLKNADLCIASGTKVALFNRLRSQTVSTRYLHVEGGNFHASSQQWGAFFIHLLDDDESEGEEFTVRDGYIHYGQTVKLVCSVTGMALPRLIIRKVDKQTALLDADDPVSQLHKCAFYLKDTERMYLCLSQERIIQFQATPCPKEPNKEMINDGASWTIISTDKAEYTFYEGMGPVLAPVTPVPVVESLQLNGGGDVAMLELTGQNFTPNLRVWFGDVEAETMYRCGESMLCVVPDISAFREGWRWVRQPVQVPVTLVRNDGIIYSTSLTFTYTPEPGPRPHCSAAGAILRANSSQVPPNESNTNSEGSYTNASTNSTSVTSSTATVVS
UniProt Q6VN20: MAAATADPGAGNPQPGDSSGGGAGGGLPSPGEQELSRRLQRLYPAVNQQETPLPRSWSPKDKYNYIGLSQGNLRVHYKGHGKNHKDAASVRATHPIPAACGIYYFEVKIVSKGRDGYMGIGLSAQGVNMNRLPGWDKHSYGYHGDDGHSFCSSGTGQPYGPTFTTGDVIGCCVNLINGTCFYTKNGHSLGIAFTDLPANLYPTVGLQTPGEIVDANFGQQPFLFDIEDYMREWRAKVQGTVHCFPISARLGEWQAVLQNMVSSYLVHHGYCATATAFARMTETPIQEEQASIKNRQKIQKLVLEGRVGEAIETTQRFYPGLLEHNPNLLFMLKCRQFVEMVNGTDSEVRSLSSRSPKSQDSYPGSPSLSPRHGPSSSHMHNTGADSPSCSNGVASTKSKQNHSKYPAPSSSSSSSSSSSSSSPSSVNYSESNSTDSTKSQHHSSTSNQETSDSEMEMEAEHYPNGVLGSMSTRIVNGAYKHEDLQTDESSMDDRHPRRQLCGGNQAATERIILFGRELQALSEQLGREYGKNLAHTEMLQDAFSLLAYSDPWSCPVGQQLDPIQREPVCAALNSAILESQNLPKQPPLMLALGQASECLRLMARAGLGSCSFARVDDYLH

Compound in the experiment: ClCC(=O)N[C@@H]1CCCc2ccccc12
In words: log2 mean competition ratio of IA-DTB cysteine labelling (DMSO/compound) (log2 ratio); higher = stronger cysteine engagement by compound. To be noted: 200 µM; treatment time: 4 h; cell line lysate: HEK293T. The protocol:
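IA-DTB competitive cysteine chemoproteomics in HEK293T RIPA lysate. Lysates were treated with compound 29 or 30 at 50 or 200 µM for 4 h, then IA-DTB (500 µM, 1 h), trypsin-digested, NeutrAvidin-enriched and analysed by diaPASEF. Competition ratio = intensity DMSO / intensity compound (n=4 treated, n=64 DMSO); binding: mean log2 CR ≥ 1 and p ≤ 0.05 plus QC filters. Target is the cysteine site.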
On to RICTOR C68 (UniProt Q6R327), for which the “log2 mean competition ratio” value was -0.0731.

As to RANBP2 C3032 (UniProt P49792), the “log2 mean competition ratio” value is -0.371.

In the case of RAF1 C81 (UniProt P04049), the “log2 mean competition ratio” value stood at 0.247.

Turning to RICTOR C218 (UniProt Q6R327), the “log2 mean competition ratio” value was -0.474.

With RANBP6 C792 (UniProt O60518), the “log2 mean competition ratio” value amounted to 0.193.

RANGAP1 C152 (UniProt P46060): the “log2 mean competition ratio” value is -0.0403.

Regarding RFC4 C48 (UniProt P35249), the “log2 mean competition ratio” value is 0.366.

Regarding RC3H1 C1049 (UniProt Q5TC82), the “log2 mean competition ratio” value was -0.232.

RANBP6 C1065 (UniProt O60518): the “log2 mean competition ratio” value is 0.0017.

As to RFC1 C607 (UniProt P35251), the “log2 mean competition ratio” value amounted to 0.389.

On to RMND5A C4 (UniProt Q9H871), for which the “log2 mean competition ratio” value was -0.159.

With RIPOR1 C1016 (UniProt Q6ZS17), the “log2 mean competition ratio” value is -0.179.

In the case of RASA1 C576 (UniProt P20936), the “log2 mean competition ratio” value was determined as 0.0282.

For the target RANBP6 C952 (UniProt O60518), the “log2 mean competition ratio” value is -0.137.

On to RBBP8 C567 (UniProt Q99708), for which the “log2 mean competition ratio” value was -0.151.

RAPGEF6 C1413 (UniProt Q8TEU7): the “log2 mean competition ratio” value stood at 0.0576.

On to RAP1GDS1 C350 (UniProt P52306), for which the “log2 mean competition ratio” value was -0.0993.

As for RHBDD3 C202 (UniProt Q9Y3P4), the “log2 mean competition ratio” value turned out to be 0.613.

As to RBPJ C180 (UniProt Q06330), the “log2 mean competition ratio” value is -0.135.

RANBP10 C501 (UniProt Q6VN20): the “log2 mean competition ratio” value is 0.236.

For RMC1 C11 (UniProt Q96DM3), the “log2 mean competition ratio” value amounted to 0.205.

For the target RANBP2 C348 (UniProt P49792), the “log2 mean competition ratio” value stood at 0.528.

Regarding RB1CC1 C1236 (UniProt Q8TDY2), the “log2 mean competition ratio” value is -0.124.

For RBM20 C1024 (UniProt Q5T481), the “log2 mean competition ratio” value amounted to 0.284.

RECQL4 C749 (UniProt O94761): the “log2 mean competition ratio” value is 0.331.

On to RANBP2 C2791 (UniProt P49792), for which the “log2 mean competition ratio” value came out at 0.297.
